# Results of single-concentration screens

Data taken from ChEMBL document CHEMBL3988442, “University of Dundee, Small-Polar-MMV Screening Library” (2021).

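Whole-parasite assay of Trypanosoma brucei over 72 hours; the read-out is not stated. Compounds at 30 µM. Direction is inferred from retests: higher values go with stronger inhibition. Values scatter widely below zero; nearly all retest evidence comes from the higher of the two concentrations used. About 64,000 compounds were tested under these conditions; 1.5% (about 940) showed 50% or more at least once.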

The filed quantity is “Percent Effect” (%).
The controls that fix the scale are not given in the record; negative values are as filed.
The compounds are a random part of those screened.

Result for O=C(NCCc1cccs1)NC1CCN(c2ncccn2)CC1 was -26.89%.
Result for Fc1cccc(N2CCCC3(C2)CN(c2ncccn2)CCO3)c1.O=C(O)C(F)(F)F.O=C(O)C(F)(F)F (centres undefined) was -26.54%.
Result for CCC(Nc1cccc(OC)c1)C(=O)N(CCO)Cc1nccs1 (centres undefined) was 8.938%.
Result for O=C(CNc1cc(F)ccc1OC(F)F)NCC(F)(F)F was -30.54%.
Result for CCO[C@H]1C[C@@H](O)C12CCN(C1Cc3ccccc3C1)CC2 was -10.27%.
Result for Cc1nn(C)c(C)c1C1CCCN1CC(=O)NCc1ccco1 (centres undefined) was -17.93%.
Result for CN(Cc1ccc2c(c1)OCCO2)c1ncc(S(N)(=O)=O)s1 was -35.43%.
Result for N#Cc1ccc(S(=O)(=O)Nc2ccccc2C#N)cn1 was -7.163%.
Result for CC(COc1ccccc1)NCc1nncn1C1CCCCC1 (centres undefined) was -21.4%.
Result for CCC(CC)C(=O)N1CCN(Cc2cc(=O)c3ccccc3[nH]2)CC1 was 1.524%.
Result for O=C(O)C(F)(F)F.[H][C@@]12CCN(C)C[C@@]1([H])[C@H](C(=O)NCc1ccco1)CCO2 was -30.69%.
Result for CCc1ncc2c(n1)CN(CC(O)COc1ccc(C#N)cc1)CC2 (centres undefined) was -2.164%.
Result for Cc1nc(C(C)NC(=O)NCc2nccn2CC(C)C)cs1 (centres undefined) was -84.47%.
Result for CC(=O)N1CCC(C(=O)NCCN2CCCC(C)C2)CC1 (centres undefined) was -43.11%.
Result for CC(C)c1ccc(CN2CCC3(CCCN(c4nncs4)C3)C2)cc1.O=C(O)C(F)(F)F (centres undefined) was 30.51%.
Result for CC1CN(Cc2noc(C3CC3)n2)CCN1Cc1nccn1C (centres undefined) was 15.84%.
Result for COCCCNc1nc(CNC(=O)C2CCC2)cc(-c2ccco2)n1 was -7.715%.
Result for CN(Cc1cccc(F)c1)C(=O)CN1CCOC(Cn2cccn2)C1 (centres undefined) was 2.387%.
Result for CC(C)N1CC(C(=O)NCCc2csc(-c3ccncc3)n2)CC1=O (centres undefined) was 2.049%.
Result for O=C(CNc1cc2c(cc1Br)OCCO2)NC1CCS(=O)(=O)C1 (centres undefined) was -58.46%.
Result for O=C(O)c1ccnc(-c2ccnc(COc3ccccc3Cl)n2)c1 was -18.86%.
Result for O=C(c1cc[nH]n1)N1CCCC(c2cccc(-n3ccnc3)n2)C1 (centres undefined) was 40.98%.
Result for CCc1nccn1CC(=O)N1CCN(C2CCc3ccccc3C2)CC1 (centres undefined) was -315.4%.
Result for O=C(O)C(F)(F)F.O=C(O)C(F)(F)F.[H][C@@]12OCCN(Cc3ccoc3)[C@@]1([H])CC[C@H]2OCCN1CCCC1 was -5.554%.
Result for CN(C)C(=O)Cc1ccccc1NCc1cc(C#N)ccc1F was -2.182%.
Result for COc1cc(N2CCC(c3nccn3Cc3ccccn3)CC2)ncn1 was -14.05%.
Result for O=C(Nc1cc(C(F)(F)F)c[nH]c1=O)N1CCCSCC1 was 8.709%.
Result for [H][C@]12CN(Cc3cccc(F)c3F)C[C@]1([H])N(C1CCOCC1)C(=O)CO2 was -19.84%.
Result for CN(C)c1cc(CC(NC(=O)C2CC2)c2ccccc2)nc(C2CC2)n1 (centres undefined) was 52.69%.
Result for CCN(CC)C1CCN(C(=O)c2cc(CC(C)C)nn2CC)C1 (centres undefined) was -18.95%.
Result for COCC(=O)N1CCC2(CC(C(=O)NCc3cccnc3)=NO2)C1 (centres undefined) was -9.083%.
Result for Cc1ccc(OCC(=O)Nc2ccc(S(C)(=O)=O)cc2)cc1C was -52.55%.

Once more, the final 3:

- CCN(CC)C1CCN(C(=O)c2cc(CC(C)C)nn2CC)C1 (centres undefined) : -18.95%
- COCC(=O)N1CCC2(CC(C(=O)NCc3cccnc3)=NO2)C1 (centres undefined) : -9.083%
- Cc1ccc(OCC(=O)Nc2ccc(S(C)(=O)=O)cc2)cc1C : -52.55%